# Primary screen of a compound library

Sequences of proteins named here, by UniProt entry; tags and fusion partners are left off. Residues count along the entry.
UniProt Q4DA54, 1-478: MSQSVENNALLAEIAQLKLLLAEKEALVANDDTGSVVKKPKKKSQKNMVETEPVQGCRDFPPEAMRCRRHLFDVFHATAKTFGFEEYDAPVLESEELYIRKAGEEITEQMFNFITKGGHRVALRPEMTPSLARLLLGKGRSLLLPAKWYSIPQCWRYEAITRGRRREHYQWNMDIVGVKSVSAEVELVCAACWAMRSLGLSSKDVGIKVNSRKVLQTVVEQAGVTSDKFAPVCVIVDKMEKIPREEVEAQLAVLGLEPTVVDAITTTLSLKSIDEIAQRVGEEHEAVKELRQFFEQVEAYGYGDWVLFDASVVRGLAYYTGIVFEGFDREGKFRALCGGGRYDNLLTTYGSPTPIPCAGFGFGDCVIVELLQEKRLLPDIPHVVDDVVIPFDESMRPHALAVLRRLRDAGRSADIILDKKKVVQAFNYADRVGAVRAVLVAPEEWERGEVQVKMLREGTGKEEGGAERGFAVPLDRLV
UniProt P9WFT3, whole entry: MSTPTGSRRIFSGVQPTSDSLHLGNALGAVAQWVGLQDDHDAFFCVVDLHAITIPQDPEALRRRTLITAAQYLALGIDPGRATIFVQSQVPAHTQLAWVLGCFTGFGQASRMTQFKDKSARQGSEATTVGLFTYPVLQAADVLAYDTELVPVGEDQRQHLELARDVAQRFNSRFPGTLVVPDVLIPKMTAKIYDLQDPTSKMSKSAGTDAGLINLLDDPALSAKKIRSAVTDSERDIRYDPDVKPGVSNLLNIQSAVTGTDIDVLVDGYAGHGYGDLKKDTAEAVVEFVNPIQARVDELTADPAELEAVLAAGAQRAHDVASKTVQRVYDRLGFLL
UniProt I6X8D2, whole entry: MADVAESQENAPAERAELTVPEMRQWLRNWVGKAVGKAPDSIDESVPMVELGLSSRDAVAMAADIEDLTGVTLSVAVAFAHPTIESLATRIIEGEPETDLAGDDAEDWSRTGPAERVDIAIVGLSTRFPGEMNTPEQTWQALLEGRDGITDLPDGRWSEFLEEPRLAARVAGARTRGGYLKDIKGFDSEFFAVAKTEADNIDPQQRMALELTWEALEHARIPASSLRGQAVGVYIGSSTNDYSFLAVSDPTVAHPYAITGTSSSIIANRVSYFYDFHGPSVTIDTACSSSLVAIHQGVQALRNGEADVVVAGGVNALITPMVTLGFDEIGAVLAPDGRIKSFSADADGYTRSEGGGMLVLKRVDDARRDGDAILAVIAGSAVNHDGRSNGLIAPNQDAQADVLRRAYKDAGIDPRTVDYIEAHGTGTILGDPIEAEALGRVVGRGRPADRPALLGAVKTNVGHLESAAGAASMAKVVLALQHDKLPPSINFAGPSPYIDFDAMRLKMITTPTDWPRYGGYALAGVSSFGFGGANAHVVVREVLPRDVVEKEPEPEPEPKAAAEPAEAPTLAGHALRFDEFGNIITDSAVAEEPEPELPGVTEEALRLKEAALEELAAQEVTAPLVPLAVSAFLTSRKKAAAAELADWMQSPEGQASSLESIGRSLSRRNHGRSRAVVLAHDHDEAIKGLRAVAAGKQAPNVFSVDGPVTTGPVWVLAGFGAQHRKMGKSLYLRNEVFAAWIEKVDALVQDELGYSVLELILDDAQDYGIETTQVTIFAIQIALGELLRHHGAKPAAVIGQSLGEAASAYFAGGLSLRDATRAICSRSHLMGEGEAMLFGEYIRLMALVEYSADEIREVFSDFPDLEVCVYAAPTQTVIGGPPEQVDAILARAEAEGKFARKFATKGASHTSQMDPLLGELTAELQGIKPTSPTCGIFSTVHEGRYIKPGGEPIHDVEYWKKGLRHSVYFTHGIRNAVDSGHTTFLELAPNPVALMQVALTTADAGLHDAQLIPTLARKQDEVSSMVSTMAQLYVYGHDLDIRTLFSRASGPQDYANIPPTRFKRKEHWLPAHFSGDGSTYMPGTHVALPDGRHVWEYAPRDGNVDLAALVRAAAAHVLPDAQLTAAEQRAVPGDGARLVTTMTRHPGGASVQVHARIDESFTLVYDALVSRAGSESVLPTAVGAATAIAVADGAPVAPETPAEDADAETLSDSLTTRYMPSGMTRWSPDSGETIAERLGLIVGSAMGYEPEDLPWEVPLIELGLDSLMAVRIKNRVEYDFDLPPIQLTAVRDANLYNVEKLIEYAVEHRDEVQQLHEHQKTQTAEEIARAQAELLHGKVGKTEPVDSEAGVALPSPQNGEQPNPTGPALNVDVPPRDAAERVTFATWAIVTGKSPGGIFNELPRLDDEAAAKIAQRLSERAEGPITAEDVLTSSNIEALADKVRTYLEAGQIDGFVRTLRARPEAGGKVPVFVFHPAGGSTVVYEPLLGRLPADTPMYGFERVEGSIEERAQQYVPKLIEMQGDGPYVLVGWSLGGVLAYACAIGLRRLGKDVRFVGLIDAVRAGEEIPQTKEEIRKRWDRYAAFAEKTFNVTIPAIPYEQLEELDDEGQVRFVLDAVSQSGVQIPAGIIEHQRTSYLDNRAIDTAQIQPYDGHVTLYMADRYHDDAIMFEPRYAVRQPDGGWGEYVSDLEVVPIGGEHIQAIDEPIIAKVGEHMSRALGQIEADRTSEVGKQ
UniProt Q8IDJ8, 1-583: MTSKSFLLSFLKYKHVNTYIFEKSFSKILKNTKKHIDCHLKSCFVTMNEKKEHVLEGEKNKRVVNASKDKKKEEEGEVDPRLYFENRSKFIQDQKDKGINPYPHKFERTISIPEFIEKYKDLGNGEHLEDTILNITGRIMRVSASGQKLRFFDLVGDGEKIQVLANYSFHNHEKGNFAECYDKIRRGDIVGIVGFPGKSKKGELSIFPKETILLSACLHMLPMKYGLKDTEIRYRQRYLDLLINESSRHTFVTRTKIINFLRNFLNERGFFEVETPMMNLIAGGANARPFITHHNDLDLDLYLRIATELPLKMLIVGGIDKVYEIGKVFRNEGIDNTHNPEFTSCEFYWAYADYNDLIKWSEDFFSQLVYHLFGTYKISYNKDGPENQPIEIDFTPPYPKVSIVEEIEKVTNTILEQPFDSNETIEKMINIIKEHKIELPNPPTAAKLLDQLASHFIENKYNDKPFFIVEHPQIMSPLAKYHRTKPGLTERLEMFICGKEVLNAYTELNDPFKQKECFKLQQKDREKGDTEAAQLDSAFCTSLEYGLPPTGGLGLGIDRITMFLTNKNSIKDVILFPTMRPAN

A: 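Histidine-tRNA ligase, Trypanosoma cruzi CL Brener (UniProt Q4DA54). Enzyme assay of histidyl-tRNA synthetase; the read-out is not stated. Concentration: 30 µM. Direction is inferred from retests: higher values go with stronger inhibition. Size under these conditions: about 69,000 compounds, about 31 of them at 50% or above in at least one test.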
B: 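Enzyme assay of tryptophanyl-tRNA synthetase; the read-out is not stated. Target: Tryptophan-tRNA ligase, Mycobacterium tuberculosis (UniProt P9WFT3). Tested at 10 µM. Higher most likely means stronger inhibition; the record gives no direction and few retests gave an IC50. Size under these conditions: about 65,000 compounds, about 64 of them at 50% or above in at least one test.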
C: 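Enzyme assay of the thioesterase domain of polyketide synthase 13; the read-out is not stated. Target: Polyketide synthase Pks13, Mycobacterium tuberculosis (UniProt I6X8D2). Concentration: 30 µM. Higher reads as stronger inhibition (inferred from which compounds were picked for retests). Size under these conditions: about 67,000 compounds, about 300 of them at 50% or above in at least one test.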
D: 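Lysine-tRNA ligase, Plasmodium falciparum 3D7 (UniProt Q8IDJ8). Enzyme assay of the cytosolic lysyl-tRNA synthetase in 384-well plates, read by luminescence. Compounds at 30 µM. Higher reads as stronger inhibition, judged from the few compounds that gave an IC50. Of about 69,000 compounds tested this way, about 49 (0.071%) reached 50% or more in at least one test.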
E: 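Assay of Toxoplasma gondii numbers, read through their beta-galactosidase reporter with a colour substrate. Concentration: 10 µM. Higher reads as fewer parasites (inferred from which compounds were picked for retests). Size under these conditions: about 67,000 compounds, about 260 of them at 50% or above in at least one test.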

Results are given as percent effect. The controls that fix the scale are not given in the record; negative values are as filed. This is an unselected part of the compounds tested. A dash means the value is not listed here; it may have been measured.

compound,A,B,C,D,E
CCc1nc(CNC(C)c2cccc(N3CCCC3=O)c2)cs1.Cl (centres undefined),-,-,-,-,-3.162%
Cc1cc(C)c2c(N(C)CC3CCN(CC(C)C)C3)ncnc2n1 (centres undefined),2.564%,1.321%,-9.621%,0.5278%,19.47%
O=C(NCc1cccnc1-n1cncn1)c1ccncc1,4.819%,1.634%,-6.92%,9.626%,-0.5717%
Cc1ccccc1-n1c(O)cc(C)c(C#N)c1=O,5.263%,2.369%,1.532%,8.732%,10.11%
CC(C)N1CCC(c2cccc(C(=O)N(C)C)n2)CC1,-0.7692%,16.24%,-23.86%,0.2034%,-
COc1ccc(NC(=O)Cn2nc(C)c(C)cc2=O)cc1,3.518%,-1.812%,1.603%,-0.3064%,-1.054%
COCc1ccccc1C(=O)NS(=O)(=O)c1ccc2c(c1)CCC(=O)N2,-24.51%,-0.602%,10.08%,-0.101%,10.14%
CN1CCN(CCNC(=O)C(OC2CCCC2)c2ccccc2)CC1 (centres undefined),-0.5128%,-2.973%,-17.58%,3.958%,24.23%
Cc1nnn2c1COCC(CNC(=O)c1ccnnc1)C2 (centres undefined),7.921%,-3.133%,-,4.194%,9.222%
Cc1ccsc1CN1C[C@@H]2COC[C@]2(COCC(=O)N(C)C)C1,9.346%,-2.632%,-10.89%,0.02315%,-
CC(C)S(=O)(=O)NC(=O)c1cc(-c2cccc(Cl)c2)no1,0%,-1.053%,-16.36%,3.282%,-16.74%
CN(C)[C@H]1CCCCN(Cc2cnc(NCc3ccccc3)nc2)C1,18.52%,-2.564%,-4.46%,1.848%,-9.861%
CN(Cc1ccc(N2CCOCC2)cc1)C(=O)Cn1cccnc1=O,5.085%,-1.609%,-13.91%,0.5164%,-0.8986%
O=C(C1CCCO1)N1CCCn2c(nnc2Cn2ccnc2)C1 (centres undefined),3.797%,1.402%,-30.88%,1.903%,-
Cc1cccc(C(=O)NC(C(=O)NCc2ccc(O)nc2)C(C)C)c1 (centres undefined),10.89%,2.736%,-5.857%,0.2689%,-5.898%
CNC(=O)c1ccc2c(c1)C1(CCN(CC3CC3)CC1)C(=O)N2,3.738%,-3.358%,-13.82%,2.709%,-
CCCC1c2cccn2CCN1C(=O)c1cc(CC)no1 (centres undefined),10.99%,-,17.8%,3.905%,-11%
COCc1ncc(CN2CC[C@@](C)(O)[C@@H](Cc3ccccc3)C2)cn1,8.442%,-9.55%,-10.83%,3.122%,-32.7%
COc1ccc(Cl)cc1CC(=O)NS(=O)(=O)c1ccc(C(N)=O)cc1,1.143%,-3.916%,-9.69%,0.1521%,-4.572%
CCC[C@@H]1CN(Cc2c[nH]c(CC3CCCC3)n2)C[C@H]1C(=O)O,7.006%,-1.312%,-,1.329%,-4.531%
Cc1nc(C)n(CC2CCCN(CCc3ccncc3)C2)n1 (centres undefined),0.8264%,-4.49%,-3.698%,0.4289%,2.737%
O=C(O)C1(Cc2ccc(Cl)cc2)CCN(c2ncccc2F)CC1,5.814%,-4.31%,5.48%,1.88%,12.93%
CCc1nc(C)c(C(=O)NCCNc2cnccn2)s1,1.515%,-3.996%,-1.245%,0.2873%,-0.1883%
Cc1nc(C)n(CC2CN(Cc3ccncc3)Cc3nccn3C2)n1 (centres undefined),6.522%,-2.464%,29%,-0.5903%,-
O=C(O)CC(CC(=O)NCc1ccsc1)c1cccs1 (centres undefined),8.485%,3.832%,-48.37%,8.594%,-5.273%
CS(=O)(=O)N1CCN(C(=O)CCn2cccn2)CC1,2.041%,-1.161%,-19.45%,-0.1766%,27.58%
O=C(CC1CCCC1)N1CCC(c2cc3ncccc3c(O)n2)CC1,7.605%,-0.9412%,12.15%,1.565%,9.714%
CC1c2ncc(Cn3cccn3)n2CCN1Cc1ccccn1 (centres undefined),7.538%,-,17.86%,0.581%,-
CCc1nc(C2CCCN2CC(=O)Nc2c(C)n[nH]c2C)no1 (centres undefined),1.527%,1.519%,-6.21%,1.913%,-0.5294%
CCOc1cc(C(=O)N2CCN(C)CC2)cc2occc12,4.911%,-1.146%,13.48%,-1.739%,4.119%
O=C(O)[C@@H]1CN(C(=O)c2ccc3nccnc3c2)C[C@H]1c1ccncc1,8.889%,-9.434%,-,0.8475%,-7.042%
CC(C)CC(O)C1CCN(C(=O)c2ccc(C(F)(F)F)nc2O)CC1 (centres undefined),-1.149%,-1.632%,-28.67%,1.494%,-
O=C(O)C(F)(F)F.[H][C@]12CCC[C@@]1(COCc1cccnc1)CN(C(=O)c1ccsc1)C2,-,-,-,-,4.083%
COc1ccc(C)cc1NC(=O)c1coc(C)n1,0.5525%,-4.549%,-23.24%,0.5011%,-5.76%
Cc1nc(COc2ccc(N(C)S(C)(=O)=O)cc2)sc1C,14.43%,-22.65%,2.434%,-10.22%,-8.98%

Repeated from the top, 4 entries:

CCc1nc(CNC(C)c2cccc(N3CCCC3=O)c2)cs1.Cl (centres undefined) gave E: -3.162%.
Cc1cc(C)c2c(N(C)CC3CCN(CC(C)C)C3)ncnc2n1 (centres undefined) gave A: 2.564%; B: 1.321%; C: -9.621%; D: 0.5278%; E: 19.47%.
O=C(NCc1cccnc1-n1cncn1)c1ccncc1 gave A: 4.819%; B: 1.634%; C: -6.92%; D: 9.626%; E: -0.5717%.
Cc1ccccc1-n1c(O)cc(C)c(C#N)c1=O gave A: 5.263%; B: 2.369%; C: 1.532%; D: 8.732%; E: 10.11%.

Measurements from “University of Dundee, Small-Polar-MMV Screening Library” (2021), ChEMBL document CHEMBL3988442.